Values of other authors as cited in patent US9849145B2, “Pharmaceutical composition containing honeysuckle extract and antibiotics, pharmaceutical kit, and use of honeysuckle extract for preparation of drug” (priority 2011, dated 2017).
At least one structure is not confirmed: it was looked up by name or label, or the drawing left a doubt.

Assays:
Design in all cases: key: Resistant; Sensitive; Intermediate degree (moderate resistance)
Staphylococcus aureus = settings: clinical isolate, specimen Y31692, secretion; cited from earlier work
Klebsiella pneumoniae [1] = settings: clinical isolate, specimen 31853, urine; cited from earlier work
Pseudomona aeruginosa = settings: clinical isolate, specimen 12; cited from earlier work
Escherichia coli = settings: clinical isolate, specimen 32042, urine; cited from earlier work
Klebsiella pneumoniae [2] = settings: clinical isolate, specimen 31494, sputum; cited from earlier work

SMILES	resistance of Staphylococcus aureus to the antibiotic (Staphylococcus aureus)	resistance of Klebsiella pneumoniae to the antibiotic (Klebsiella pneumoniae [1])	resistance of Pseudomona aeruginosa to the antibiotic (Pseudomona aeruginosa)	resistance of Escherichia coli to the antibiotic (Escherichia coli)	drug resistant spectrum of the experimental strain of Klebsiella pneumoniae (Klebsiella pneumoniae [2])
CCC[C@@H]1C[C@@H](C(=O)N[C@@H]([C@H]2O[C@H](SC)[C@H](O)[C@@H](O)[C@H]2O)[C@H](C)Cl)N(C)C1 [CLI, clindamycin]	R				
C[C@@H](O)[C@H]1C(=O)N2C(C(=O)O)=C(SCCN=CN)C[C@H]12 [IPM, imipenem]		S	S	S	S
CN(C)c1ccc(O)c2c1C[C@H]1C[C@H]3[C@H](N(C)C)C(O)=C(C(N)=O)C(=O)[C@@]3(O)C(O)=C1C2=O [MH, minocycline]			R		
CN(C)[C@@H]1C(O)=C(C(N)=O)C(=O)[C@@]2(O)C(O)=C3C(=O)c4c(O)cccc4[C@@](C)(O)[C@H]3C[C@@H]12 [TCY, tetracycline]	R	R		R	R
